From publication PMC10576317
These are yes or no findings as the source states them, for the method shown. In cells and extracts the contact can be indirect. Some binding calls cover weakened binding; strength is not graded here.

Protein sequences, listed by entry. Tags and fused reporters are not part of them. Residues count along the entry.
UniProt P08670: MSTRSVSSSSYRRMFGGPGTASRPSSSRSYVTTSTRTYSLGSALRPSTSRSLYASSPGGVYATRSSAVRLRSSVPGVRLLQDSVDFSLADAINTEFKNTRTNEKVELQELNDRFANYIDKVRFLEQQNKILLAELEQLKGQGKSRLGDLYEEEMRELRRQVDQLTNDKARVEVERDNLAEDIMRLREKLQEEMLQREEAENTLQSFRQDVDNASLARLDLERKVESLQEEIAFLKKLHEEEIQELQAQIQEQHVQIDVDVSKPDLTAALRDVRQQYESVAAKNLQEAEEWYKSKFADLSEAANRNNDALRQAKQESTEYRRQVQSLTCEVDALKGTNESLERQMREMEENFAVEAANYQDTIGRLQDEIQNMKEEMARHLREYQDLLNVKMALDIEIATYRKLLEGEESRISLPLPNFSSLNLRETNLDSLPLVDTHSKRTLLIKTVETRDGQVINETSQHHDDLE
UniProt P63165, residues 1-97: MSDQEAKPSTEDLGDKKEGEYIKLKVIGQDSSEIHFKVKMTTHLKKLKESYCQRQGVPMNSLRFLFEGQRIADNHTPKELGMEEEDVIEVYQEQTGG

Target: vimentin (human (endogenous in Hct116 and LoVo)) (UniProt P08670)
Assay: co-IP; lysates of Hct116 and LoVo control cells and PDCs (after ATO treatment) in immunoprecipitation lysis buffer; anti-vimentin antibody overnight at 4 °C, protein A/G beads 2 h at 4 °C; normal mouse IgG as control; western blot

Question: For SUMO1 (from UniProt P63165 1-97), which binding is on record?
Answer: binds
